The star is where a group is joined. Tos = Cc1ccc(S(=O)(=O)*)cc1; ClZ = O=C(OCc1ccccc1Cl)*; OPac = O=C(CO*)c1ccccc1; Boc = CC(C)(C)OC(=O)*; OcHex = C1CCC(O*)CC1; OBn = c1ccc(CO*)cc1

One data set is described as follows: general procedure: solution-phase peptide synthesis; OSu/ONp active esters; WSCI/HOBt for fragment condensation. The conditions noted are these: coupling step, HCl.
Boc-IR(Tos)D(OcHex)G-OPac showed a step yield of 96.8%.

The substance Boc-R(Tos)NIR(Tos)D(OcHex)G-OPac returned a step yield of 80.7%.

On to Boc-IE(OBn)K(ClZ)MG-OPac, for which the step yield is on record as 81.6%.

With Boc-NIR(Tos)D(OcHex)G-OPac, the step yield is reported as 80.2%.

Turning to “Boc-Arg(Tos)-Trp(CHO)-Lys(ClZ)-Ile-Phe-Lys(ClZ)-Lys-(ClZ)-Ile-Glu(OBzl)-Lys(ClZ)-Met-Gly-OPac”, the step yield is recorded as 77.0%.

Take Boc-K(ClZ)IFK(ClZ)-OPac: the step yield was found to be 98.6%.

In the case of “Boc-Trp(CHO)-Lys(ClZ)-Ile-Phe-Lys(ClZ)-OPac”, the step yield is recorded as 81.7%.

Regarding “Boc-Arg(Tos)-Trp(CHO)-Lys(ClZ)-Ile-Phe-Lys(ClZ)-Lys(ClZ)-Ile-Glu(OBzl)-Lys(ClZ)-Met-Gly-Arg(Tos)-Asn-Ile-Arg(Tos)-Asp(OcHex)-Gly-OPac”, the step yield is recorded as 60.3%.

The substance Boc-Glu(OBzl)-Lyz(ClZ)-Met-Gly-OPac displayed a step yield of 85.9%.

Take “Boc-Arg(Tos)-Trp(CHO)-Lys(ClZ)-Ile-Phe-Lys(ClZ)-OPac”: the step yield worked out at 76.8%.

For Boc-K(ClZ)IE(OBn)K(ClZ)MG-OPac, the step yield is on record as 87.5%.

The data set is the same for the next values; noted with them: late stage modification step, HCl.
The substance “Boc-Arg(Tos)-Trp(CHO)-Lys(ClZ)-Ile-Phe-Lys(ClZ)-Lys(ClZ)-Ile-Glu(OBzl)-Lys(ClZ)-Met-Gly-OH” returned a step yield of 89.8%.

HCl-H-Ile-Arg(Tos)-Asp(OcHex)-Gly-OPac returned a step yield of 98.5%.

In the case of “HCl.H-Arg(Tos)-Asn-Ile-Arg(Tos)-Asp(OcHex)-Gly-OPac”, the step yield was 95.4%.

For the substance “HCl.H-Ile-Glu(OBzl)-Lys(ClZ)-Met-Gly-OPac”, the step yield was 96.6%.

For the substance “TFA.H-Trp(CHO)-Lys(ClZ)-Ile-Phe-Lys(ClZ)-OPac”, the step yield was found to be 83.9%.

In the case of “Boc-Arg(Tos)-Trp(CHO)-Lys(ClZ)-Ile-Phe-Lys(ClZ)-Lys(ClZ)-Ile-Glu(OBzl)-Lys(ClZ)-Met-Gly-Arg(Tos)-Asn-Ile-Arg(Tos)-Asp(OcHex)-Gly-OH”, the step yield turned out to be 98.5%.

For the substance HCl.H-Lys(ClZ)-Ile-Phe-Lys(ClZ)-OPac, the step yield was determined as 97.2%.

For HCl.H-Glu(OBzl)-Lys(ClZ)-Met-Gly-OPac, the step yield is listed as 82.9%.

“Boc-Arg(Tos)-Trp(CHO)-Lys(ClZ)-Ile-Phe-Lys(ClZ)-OH” displayed a step yield of 94.0%.

As for “HCl.H-Lys(ClZ)-Ile-Glu(OBzl)-Lys(ClZ)-Met-Gly-OPac”, the step yield is reported as 97.1%.
